The target of one assay is T1, XPC-GFP (UniProt Q01831).
T1 sequence: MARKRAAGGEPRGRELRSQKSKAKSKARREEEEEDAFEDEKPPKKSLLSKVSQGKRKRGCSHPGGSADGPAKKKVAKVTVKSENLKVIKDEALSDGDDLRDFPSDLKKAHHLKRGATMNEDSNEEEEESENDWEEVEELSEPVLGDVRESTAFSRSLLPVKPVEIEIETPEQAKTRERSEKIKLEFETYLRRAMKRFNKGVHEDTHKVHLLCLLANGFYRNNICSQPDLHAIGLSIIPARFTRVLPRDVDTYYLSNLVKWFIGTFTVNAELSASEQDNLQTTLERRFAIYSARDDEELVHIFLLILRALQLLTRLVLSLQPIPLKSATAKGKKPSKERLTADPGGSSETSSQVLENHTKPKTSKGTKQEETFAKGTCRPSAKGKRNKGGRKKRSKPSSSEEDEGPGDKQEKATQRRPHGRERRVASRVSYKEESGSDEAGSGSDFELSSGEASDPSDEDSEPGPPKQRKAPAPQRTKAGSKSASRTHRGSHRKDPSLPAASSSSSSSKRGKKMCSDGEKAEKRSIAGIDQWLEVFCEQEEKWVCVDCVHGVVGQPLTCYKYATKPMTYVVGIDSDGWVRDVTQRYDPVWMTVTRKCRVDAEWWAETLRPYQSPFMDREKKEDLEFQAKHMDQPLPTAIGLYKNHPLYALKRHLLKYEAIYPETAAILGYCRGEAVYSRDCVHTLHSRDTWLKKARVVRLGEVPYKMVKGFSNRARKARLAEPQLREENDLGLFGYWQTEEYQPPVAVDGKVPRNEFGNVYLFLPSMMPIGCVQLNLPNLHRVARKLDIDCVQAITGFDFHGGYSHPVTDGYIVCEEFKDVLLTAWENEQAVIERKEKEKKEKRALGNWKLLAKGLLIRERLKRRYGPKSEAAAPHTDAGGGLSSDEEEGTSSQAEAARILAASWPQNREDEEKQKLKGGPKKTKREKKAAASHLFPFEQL
Briefly: affinity purification with mass spectrometry; GFP pull-down (GFP-Trap beads) of XPC-GFP over GFP-NLS from U2OS (FRT) XPC-KO cells, label-free proteomics; cells unirradiated or UV-C-irradiated (20 J/m^2, 1 h).

Amino acid sequences for entries named in this document (tags omitted). A change or cut given only in a name is not applied to a line headed by its entry. Chains listed by the source or under a name are the forms on record and can include a tag or linker.
UniProt Q86WJ1: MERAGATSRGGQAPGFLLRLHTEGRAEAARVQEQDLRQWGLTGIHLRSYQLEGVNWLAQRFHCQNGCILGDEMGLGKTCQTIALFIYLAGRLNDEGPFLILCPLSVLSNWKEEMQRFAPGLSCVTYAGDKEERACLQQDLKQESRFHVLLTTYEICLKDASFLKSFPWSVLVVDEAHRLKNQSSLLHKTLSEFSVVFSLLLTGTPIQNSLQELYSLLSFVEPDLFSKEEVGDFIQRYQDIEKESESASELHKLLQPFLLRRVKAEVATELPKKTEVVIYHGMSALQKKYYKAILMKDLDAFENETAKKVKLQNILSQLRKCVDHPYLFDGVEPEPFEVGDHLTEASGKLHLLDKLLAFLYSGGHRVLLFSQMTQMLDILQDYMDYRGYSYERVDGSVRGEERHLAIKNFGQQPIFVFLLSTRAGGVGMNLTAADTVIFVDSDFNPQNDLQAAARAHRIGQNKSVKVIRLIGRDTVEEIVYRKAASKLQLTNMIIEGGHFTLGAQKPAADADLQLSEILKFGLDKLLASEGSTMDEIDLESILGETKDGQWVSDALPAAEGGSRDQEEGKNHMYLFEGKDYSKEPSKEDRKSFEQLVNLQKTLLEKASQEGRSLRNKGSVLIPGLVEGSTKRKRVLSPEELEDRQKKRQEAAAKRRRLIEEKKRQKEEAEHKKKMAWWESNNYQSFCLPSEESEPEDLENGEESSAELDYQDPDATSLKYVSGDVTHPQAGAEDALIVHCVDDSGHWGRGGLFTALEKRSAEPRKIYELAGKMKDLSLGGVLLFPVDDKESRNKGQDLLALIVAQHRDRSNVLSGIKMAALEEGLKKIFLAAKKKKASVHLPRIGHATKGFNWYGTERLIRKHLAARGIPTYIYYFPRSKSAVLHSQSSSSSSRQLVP
UniProt P09874: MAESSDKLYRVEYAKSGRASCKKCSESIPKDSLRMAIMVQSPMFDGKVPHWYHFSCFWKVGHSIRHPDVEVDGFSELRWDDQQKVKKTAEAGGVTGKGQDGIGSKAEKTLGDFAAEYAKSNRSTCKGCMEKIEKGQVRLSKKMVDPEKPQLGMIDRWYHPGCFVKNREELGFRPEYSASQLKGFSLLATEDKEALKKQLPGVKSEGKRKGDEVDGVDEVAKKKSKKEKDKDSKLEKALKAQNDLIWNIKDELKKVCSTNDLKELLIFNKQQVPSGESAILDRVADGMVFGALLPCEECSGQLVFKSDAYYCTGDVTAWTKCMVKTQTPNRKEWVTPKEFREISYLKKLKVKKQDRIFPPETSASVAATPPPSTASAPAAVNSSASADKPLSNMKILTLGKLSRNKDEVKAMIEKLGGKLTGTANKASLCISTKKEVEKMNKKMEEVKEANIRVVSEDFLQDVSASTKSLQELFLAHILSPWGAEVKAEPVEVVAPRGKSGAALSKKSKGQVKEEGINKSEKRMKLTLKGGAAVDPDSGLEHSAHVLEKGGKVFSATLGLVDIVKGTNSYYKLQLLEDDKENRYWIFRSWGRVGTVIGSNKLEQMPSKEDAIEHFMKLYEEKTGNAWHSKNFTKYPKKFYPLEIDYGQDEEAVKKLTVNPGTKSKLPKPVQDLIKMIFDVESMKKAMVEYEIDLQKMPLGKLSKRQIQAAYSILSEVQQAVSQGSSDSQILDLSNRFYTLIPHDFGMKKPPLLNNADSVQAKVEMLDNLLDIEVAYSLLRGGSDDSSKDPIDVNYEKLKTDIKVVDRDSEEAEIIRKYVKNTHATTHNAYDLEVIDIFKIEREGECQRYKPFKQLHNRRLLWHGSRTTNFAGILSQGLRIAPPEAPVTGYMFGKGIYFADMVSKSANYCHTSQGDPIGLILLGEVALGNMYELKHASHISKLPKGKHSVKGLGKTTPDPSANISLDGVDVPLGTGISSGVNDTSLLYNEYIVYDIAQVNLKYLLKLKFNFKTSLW
UniProt Q9UGN5: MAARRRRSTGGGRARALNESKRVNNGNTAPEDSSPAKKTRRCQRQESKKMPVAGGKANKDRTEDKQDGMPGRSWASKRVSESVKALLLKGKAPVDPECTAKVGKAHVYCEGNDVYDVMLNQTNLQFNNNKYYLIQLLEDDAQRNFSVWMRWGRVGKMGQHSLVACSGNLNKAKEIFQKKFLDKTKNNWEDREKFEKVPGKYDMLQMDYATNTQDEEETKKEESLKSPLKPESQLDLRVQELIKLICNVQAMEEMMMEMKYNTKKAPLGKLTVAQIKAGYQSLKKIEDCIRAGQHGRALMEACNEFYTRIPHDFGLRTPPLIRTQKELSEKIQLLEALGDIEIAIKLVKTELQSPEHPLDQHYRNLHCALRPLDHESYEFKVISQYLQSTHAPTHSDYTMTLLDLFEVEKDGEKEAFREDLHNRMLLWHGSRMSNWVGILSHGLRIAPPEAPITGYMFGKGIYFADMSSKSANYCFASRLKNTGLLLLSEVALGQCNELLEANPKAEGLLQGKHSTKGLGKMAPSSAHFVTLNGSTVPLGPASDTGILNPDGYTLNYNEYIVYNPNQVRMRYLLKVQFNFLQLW
GFP-PARP2 (Q9UGN5-2, form named): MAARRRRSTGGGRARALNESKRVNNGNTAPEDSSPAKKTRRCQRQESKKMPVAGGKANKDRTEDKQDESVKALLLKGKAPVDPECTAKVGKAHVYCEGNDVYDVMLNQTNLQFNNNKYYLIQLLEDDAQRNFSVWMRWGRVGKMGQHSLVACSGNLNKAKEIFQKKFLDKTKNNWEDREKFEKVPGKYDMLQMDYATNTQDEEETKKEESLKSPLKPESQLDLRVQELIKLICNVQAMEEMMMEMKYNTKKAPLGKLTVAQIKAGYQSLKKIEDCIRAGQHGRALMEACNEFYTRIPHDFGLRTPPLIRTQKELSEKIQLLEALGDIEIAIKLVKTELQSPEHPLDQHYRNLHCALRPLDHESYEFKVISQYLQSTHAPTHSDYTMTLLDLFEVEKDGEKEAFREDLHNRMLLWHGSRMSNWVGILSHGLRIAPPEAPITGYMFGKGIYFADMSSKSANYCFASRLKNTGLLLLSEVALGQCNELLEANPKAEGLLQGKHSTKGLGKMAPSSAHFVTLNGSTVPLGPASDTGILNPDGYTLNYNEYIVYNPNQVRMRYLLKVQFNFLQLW
UniProt Q13619: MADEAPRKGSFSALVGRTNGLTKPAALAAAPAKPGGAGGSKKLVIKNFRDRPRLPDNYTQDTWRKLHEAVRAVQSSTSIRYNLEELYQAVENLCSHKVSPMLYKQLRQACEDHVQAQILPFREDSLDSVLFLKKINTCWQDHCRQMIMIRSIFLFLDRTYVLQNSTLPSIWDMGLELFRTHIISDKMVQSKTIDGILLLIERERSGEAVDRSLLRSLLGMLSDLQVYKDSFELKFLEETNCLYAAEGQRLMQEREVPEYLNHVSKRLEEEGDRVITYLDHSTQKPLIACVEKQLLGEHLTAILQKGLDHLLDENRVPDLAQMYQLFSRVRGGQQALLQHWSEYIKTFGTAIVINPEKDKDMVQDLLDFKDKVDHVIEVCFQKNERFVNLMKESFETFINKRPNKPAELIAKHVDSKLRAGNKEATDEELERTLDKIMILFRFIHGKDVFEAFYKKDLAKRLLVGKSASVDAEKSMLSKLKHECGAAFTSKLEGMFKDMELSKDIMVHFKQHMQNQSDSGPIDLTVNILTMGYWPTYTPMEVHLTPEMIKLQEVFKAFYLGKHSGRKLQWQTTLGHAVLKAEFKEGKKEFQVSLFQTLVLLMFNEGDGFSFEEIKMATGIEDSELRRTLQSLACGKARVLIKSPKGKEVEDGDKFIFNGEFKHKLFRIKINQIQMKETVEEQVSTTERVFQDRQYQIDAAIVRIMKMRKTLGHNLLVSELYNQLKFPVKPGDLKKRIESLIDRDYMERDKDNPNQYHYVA
UniProt Q13620: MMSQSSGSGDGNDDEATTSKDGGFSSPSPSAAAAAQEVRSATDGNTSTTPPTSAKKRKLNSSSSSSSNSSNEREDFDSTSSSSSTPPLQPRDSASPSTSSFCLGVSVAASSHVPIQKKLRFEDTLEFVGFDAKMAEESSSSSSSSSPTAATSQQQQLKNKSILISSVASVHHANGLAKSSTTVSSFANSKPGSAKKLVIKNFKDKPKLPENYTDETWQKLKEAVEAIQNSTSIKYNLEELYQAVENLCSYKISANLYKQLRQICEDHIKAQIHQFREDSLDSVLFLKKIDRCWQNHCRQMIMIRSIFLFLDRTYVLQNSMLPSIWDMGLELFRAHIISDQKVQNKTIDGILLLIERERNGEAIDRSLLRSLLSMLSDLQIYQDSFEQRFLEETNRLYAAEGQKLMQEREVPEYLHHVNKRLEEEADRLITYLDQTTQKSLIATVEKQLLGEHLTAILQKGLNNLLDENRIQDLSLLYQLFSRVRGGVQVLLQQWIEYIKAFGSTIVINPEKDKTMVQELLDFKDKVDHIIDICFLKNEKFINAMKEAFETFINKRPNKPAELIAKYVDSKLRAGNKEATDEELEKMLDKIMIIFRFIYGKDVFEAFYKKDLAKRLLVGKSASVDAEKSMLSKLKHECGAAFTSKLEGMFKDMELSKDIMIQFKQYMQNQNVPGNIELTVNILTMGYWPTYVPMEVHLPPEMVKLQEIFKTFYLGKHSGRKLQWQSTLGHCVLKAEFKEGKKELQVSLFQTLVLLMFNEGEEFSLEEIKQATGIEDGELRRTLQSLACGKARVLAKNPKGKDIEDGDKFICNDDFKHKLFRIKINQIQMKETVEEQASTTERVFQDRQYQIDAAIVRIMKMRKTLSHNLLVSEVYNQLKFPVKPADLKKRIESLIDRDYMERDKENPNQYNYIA
UniProt Q16531: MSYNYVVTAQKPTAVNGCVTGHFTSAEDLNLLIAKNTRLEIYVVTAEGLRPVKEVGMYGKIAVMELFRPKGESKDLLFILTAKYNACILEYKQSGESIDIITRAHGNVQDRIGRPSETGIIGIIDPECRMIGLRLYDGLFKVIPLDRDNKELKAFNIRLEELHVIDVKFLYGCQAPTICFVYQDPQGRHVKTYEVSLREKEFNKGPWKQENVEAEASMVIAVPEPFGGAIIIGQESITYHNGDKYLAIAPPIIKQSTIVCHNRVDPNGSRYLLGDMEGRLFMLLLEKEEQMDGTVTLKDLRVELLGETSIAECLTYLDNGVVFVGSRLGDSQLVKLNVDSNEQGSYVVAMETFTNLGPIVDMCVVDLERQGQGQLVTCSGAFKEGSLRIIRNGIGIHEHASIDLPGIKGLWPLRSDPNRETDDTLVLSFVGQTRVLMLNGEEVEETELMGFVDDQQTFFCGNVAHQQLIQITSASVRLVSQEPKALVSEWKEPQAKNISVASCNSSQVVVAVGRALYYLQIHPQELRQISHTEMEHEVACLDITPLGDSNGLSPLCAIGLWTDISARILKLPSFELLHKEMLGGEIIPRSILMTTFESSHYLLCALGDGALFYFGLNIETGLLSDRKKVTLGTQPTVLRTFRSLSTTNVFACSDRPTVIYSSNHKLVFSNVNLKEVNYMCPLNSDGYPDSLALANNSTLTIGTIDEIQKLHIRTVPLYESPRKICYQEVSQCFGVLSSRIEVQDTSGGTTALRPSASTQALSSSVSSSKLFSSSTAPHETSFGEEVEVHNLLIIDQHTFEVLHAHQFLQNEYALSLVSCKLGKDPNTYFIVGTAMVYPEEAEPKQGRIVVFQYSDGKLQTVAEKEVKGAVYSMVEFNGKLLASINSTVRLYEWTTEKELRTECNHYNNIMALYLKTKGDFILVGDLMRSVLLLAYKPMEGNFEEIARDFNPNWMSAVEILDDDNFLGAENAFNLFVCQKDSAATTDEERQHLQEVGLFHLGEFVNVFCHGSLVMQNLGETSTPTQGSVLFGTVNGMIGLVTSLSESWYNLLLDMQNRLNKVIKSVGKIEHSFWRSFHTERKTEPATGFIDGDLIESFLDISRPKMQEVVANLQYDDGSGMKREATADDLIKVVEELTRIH
UniProt P54725: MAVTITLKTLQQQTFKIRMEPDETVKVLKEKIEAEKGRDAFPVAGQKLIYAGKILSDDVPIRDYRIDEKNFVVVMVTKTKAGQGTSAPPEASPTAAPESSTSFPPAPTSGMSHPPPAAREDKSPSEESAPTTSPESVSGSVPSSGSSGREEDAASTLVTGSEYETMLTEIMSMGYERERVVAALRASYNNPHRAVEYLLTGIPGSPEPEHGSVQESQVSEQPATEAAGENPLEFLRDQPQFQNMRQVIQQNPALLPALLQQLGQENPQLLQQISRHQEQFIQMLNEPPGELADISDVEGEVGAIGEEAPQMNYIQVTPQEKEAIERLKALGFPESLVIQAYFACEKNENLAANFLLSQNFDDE

The target of the next assay is GFP-ALC1 WT (UniProt Q86WJ1). As to the kind of experiment: affinity purification with mass spectrometry; GFP pull-down of GFP-ALC1 WT or E175Q from U2OS (FRT) ALC1-KO cells, label-free proteomics.
Another assay deals with T2, PARP1-GFP (UniProt P09874 1-1014).
T2 construct: source: U2OS (FRT) WT, stably expressed (Flp-In, doxycycline-inducible), in lysate; not shown: GFP, C-terminal, kept
As to the kind of experiment: affinity purification with mass spectrometry; GFP pull-down of PARP1-GFP or GFP-PARP2 from U2OS (FRT) WT cells, label-free proteomics with iBAQ quantification; cells unirradiated or UV-C-irradiated (20 J/m^2, 1 h).

Another assay concerns the target GFP-ALC1 E175Q (UniProt Q86WJ1). Briefly: affinity purification with mass spectrometry; GFP pull-down of GFP-ALC1 WT or E175Q from U2OS (FRT) ALC1-KO cells, label-free proteomics.
In another assay the target is T3, GFP-PARP2 (UniProt Q9UGN5-2 1-570).
T3 construct: also called PARP2-GFP; source: U2OS (FRT) WT, stably expressed (Flp-In, doxycycline-inducible), in lysate; not shown: GFP, N-terminal, kept
Briefly: affinity purification with mass spectrometry; GFP pull-down of PARP1-GFP or GFP-PARP2 from U2OS (FRT) WT cells, label-free proteomics with iBAQ quantification; cells unirradiated or UV-C-irradiated (20 J/m^2, 1 h).

Results are given in words; binding and its absence hold for the method and conditions named. Binding seen in cells or lysates may run through a third protein. Here binding means that the protein was enriched with, or labelled near, the bait; the list need not be complete. For some assays here: Tags and fused reporters may be left off the sequences shown.

On to CUL4A (from UniProt Q13619 1-759), for which, in the assay with XPC-GFP, the binding result was “binds”.
As to CUL4B (from UniProt Q13620 1-913), the binding result with XPC-GFP is recorded as “binds”.
Consider SPT16 (from UniProt Q9Y5B9 1-1047), for which, in the assay with GFP-ALC1 WT, the binding result is recorded as “binds”.
Turning to “PARP2 (endogenous) (from UniProt Q9UGN5 1-583) (enzyme)”, the binding result with XPC-GFP, in the assay with PARP1-GFP, in the assay with GFP-ALC1 E175Q and in the assay with GFP-ALC1 WT was “binds” each time.
On to “ALC1 (endogenous) (from UniProt Q86WJ1 1-897) (enzyme)”, for which the binding result in the assay with GFP-PARP2 and with PARP1-GFP was “binds” throughout.
Regarding DDB1 (from UniProt Q16531 1-1140), the binding entry in the assay with XPC-GFP was “binds”.
As for “PARP1 (endogenous) (from UniProt P09874 1-1014) (enzyme)”, the binding result with XPC-GFP, with GFP-PARP2 and with GFP-ALC1 WT was “binds” each time.
On to RAD23A (from UniProt P54725 1-363), for which the binding entry with XPC-GFP is given as “binds”.
DDB2 (from UniProt Q92466 1-427): in the assay with XPC-GFP, the binding result is reported as “binds”.

B1: XPC (endogenous) (natural protein, human (endogenous in U2OS), UniProt Q01831 1-940, looked up)
chain: T1 sequence
notes: XPC, endogenous in U2OS cells; source: endogenous, U2OS (FRT) WT lysate
Turning to B1, the binding result with GFP-PARP2 is “binds”.

B2: CEN3 (protein, UniProt O15182 1-167)
chain: MSLALRSELVVDKTKRKKRRELSEEQKQEIKDAFELFDTDKDEAIDYHELKVAMRALGFDVKKADVLKILKDYDREATGKITFEDFNEVVTDWILERDPHEEILKAFKLFDDDDSGKISLRNLRRVARELGENMSDEELRAMIEEFDKDGDGEINQEEFIAIMTGDI
Take B2: the binding result with XPC-GFP is given as “binds”.

The values are drawn from PMC9376112, “XPC–PARP complexes engage the chromatin remodeler ALC1 to catalyze global genome DNA damage repair” (Nature Communications, 2022).
